Laboratory results reported in article PMC2904801, “A Metazoan/Plant-like Capping Enzyme and Cap Modified Nucleotides in the Unicellular Eukaryote Trichomonas vaginalis” (PLoS Pathogens, 2010).
Results are given in words; binding and its absence hold for the method and conditions named.

Target: Trichomonas vaginalis capping enzyme (TvCE), full-length recombinant (Trichomonas vaginalis) (UniProt A2DUZ5)
Assay: SEC; pre-calibrated Superdex 200 column; 50 mM Tris pH 6.0, 200 mM NaCl, 5 mM DTT, 10% glycerol; 0.2 ml/min; fractions tested for TPase and GTase activity and by western blot with HisProbe-HRP; both purified

- binding: no binding
B1: Trichomonas vaginalis capping enzyme (TvCE), full-length recombinant (enzyme, UniProt A2DUZ5 1-561)
chain: MTDNKFTPPKRWINCPKFGDRVPNTHFIPLKAPLADKYSDLYEKHRFTFSIFQEEQRKLGREIEVVISLANTDVFYSVNDLNGVKWRHIPCRGHETAPTSDEYAKFLATIEEFQQLPDNTLIAVHCTHGFNRTGYMIVRYLVDKLHYTLLQALQLFASVRSPGIYKVDYIQVLCQIYQVDETQTLSELFHVPPSEIKNIKKPKWEFPDPSTLPHFRVEKPIVNETQTLENVGTHFRDSAITSEISKICSVNYGRFPGSNPISITSENKMQLTQKRYLATYKSDGVRYFLYAFHKNTYLIDRKNSIRKVNVTLVTRKGQPMENTLLDGELVVSKGDDKPHFLIFDVLCFEGLNLTNHTWDLRMDYSKKGVVPFRKMYFNRNPGAFTREDFHIEEKLQWELQNIRDLEEYIMTKVTHDTDGAIFTPLDLEFVPGRCDQILKMKPIELNSTDFKIQLHNGIYYMSVTNYVKNDEKFQENIPISILDFADGLGVKDGAICEAVLDLKKEDIENDPINCWFKAGWRPLRIREDKDTPNVYTTFAGVFKSIEDNINFDTIAKMFPKK
